# This is one part of the list.
# By UniProt entry, the sequences of proteins in these tests, tags left out. Where a name states a change or a piece, a line headed by the entry shows the natural chain unless it says otherwise.
# UniProt Q8WUH1: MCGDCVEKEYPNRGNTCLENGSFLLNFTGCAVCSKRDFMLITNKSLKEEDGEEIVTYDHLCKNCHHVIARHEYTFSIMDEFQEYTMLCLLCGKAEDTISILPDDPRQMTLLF
# UniProt Q9BT09: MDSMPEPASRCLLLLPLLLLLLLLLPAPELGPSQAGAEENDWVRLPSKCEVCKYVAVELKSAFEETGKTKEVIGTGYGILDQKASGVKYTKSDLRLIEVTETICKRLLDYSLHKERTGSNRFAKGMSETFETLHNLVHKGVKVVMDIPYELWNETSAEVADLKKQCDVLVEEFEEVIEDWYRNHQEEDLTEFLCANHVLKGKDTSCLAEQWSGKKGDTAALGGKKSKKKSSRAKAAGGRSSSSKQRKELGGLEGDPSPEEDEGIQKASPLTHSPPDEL
# UniProt Q8N5K1: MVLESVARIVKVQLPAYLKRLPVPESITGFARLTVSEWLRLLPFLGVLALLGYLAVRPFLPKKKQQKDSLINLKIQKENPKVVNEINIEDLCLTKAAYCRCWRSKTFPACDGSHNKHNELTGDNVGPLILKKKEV
# UniProt Q9Y2R0: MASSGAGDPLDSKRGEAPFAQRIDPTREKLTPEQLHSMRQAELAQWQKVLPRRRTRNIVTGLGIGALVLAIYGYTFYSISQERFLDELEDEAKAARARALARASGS
# UniProt Q9NZ45: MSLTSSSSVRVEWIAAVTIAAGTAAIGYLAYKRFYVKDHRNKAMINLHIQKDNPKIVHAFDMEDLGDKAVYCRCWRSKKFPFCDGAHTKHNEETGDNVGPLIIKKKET
# UniProt Q14011: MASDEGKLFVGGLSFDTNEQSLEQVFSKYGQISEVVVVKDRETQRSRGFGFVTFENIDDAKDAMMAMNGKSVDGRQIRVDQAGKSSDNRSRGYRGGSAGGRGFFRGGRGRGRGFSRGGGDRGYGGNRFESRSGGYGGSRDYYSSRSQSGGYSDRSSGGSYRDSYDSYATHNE
# UniProt O76071: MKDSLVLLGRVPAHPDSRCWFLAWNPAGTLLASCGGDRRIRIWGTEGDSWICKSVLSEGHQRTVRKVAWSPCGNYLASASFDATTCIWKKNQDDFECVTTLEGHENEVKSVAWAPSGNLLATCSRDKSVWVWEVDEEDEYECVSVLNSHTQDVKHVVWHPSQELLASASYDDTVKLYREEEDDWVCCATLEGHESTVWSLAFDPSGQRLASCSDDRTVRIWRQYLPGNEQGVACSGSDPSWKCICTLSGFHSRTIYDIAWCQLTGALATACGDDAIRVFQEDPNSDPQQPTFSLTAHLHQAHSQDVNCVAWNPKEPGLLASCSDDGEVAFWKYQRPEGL
# UniProt P51790: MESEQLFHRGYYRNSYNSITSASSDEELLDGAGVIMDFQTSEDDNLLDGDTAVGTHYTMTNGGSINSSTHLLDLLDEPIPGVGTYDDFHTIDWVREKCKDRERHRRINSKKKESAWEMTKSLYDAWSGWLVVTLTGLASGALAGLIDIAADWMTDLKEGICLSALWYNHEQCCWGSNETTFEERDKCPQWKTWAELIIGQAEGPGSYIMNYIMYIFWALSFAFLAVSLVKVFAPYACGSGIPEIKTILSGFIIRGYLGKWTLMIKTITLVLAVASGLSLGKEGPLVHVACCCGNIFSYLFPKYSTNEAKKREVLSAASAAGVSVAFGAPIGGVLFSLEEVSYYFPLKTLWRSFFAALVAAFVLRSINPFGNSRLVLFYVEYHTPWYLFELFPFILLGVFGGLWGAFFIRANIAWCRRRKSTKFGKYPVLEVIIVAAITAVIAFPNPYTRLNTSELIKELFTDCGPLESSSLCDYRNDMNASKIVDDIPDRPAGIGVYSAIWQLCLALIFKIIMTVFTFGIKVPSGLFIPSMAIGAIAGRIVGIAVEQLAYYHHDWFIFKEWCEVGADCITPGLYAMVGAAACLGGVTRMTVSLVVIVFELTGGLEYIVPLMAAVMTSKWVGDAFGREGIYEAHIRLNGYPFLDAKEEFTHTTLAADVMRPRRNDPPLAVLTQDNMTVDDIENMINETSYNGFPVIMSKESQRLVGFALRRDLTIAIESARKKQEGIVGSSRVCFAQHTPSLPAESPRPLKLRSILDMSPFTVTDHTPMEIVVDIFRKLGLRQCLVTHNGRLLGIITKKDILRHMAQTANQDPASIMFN
# UniProt Q7Z7K0: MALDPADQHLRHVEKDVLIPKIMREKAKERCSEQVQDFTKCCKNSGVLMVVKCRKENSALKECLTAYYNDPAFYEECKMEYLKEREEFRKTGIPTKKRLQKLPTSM
# UniProt Q9HAW4: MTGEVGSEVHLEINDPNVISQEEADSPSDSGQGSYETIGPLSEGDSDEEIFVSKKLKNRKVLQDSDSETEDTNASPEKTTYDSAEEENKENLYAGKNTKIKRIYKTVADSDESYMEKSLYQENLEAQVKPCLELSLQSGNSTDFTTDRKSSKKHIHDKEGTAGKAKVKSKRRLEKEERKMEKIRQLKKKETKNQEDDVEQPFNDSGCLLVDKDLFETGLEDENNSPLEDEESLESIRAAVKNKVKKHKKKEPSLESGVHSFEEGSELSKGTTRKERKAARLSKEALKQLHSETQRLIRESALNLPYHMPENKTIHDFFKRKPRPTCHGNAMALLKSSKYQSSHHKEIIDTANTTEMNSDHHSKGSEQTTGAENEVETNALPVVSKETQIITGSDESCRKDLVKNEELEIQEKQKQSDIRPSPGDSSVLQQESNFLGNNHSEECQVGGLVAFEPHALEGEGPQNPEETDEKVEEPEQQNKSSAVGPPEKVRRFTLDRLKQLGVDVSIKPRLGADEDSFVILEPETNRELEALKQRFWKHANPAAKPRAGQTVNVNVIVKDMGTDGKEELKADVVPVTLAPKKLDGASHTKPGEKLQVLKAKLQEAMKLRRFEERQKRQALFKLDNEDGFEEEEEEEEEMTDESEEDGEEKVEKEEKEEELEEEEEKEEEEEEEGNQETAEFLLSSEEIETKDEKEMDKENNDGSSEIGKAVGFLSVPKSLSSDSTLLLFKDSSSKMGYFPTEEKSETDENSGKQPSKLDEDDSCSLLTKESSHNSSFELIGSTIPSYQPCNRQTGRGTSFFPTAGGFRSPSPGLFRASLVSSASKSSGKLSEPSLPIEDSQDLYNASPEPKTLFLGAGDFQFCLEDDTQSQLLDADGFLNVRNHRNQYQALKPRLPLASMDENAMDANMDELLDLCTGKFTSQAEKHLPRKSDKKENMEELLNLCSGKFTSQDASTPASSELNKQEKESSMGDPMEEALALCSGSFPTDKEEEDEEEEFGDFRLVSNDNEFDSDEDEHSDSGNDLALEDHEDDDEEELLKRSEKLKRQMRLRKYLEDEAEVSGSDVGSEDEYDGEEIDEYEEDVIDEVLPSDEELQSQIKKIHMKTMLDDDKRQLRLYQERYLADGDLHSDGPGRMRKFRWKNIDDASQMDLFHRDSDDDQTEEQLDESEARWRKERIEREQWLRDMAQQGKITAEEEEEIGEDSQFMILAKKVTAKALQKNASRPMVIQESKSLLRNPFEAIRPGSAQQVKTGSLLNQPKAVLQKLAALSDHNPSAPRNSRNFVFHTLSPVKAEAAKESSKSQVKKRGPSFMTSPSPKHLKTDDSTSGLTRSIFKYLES
# UniProt Q9NRG0: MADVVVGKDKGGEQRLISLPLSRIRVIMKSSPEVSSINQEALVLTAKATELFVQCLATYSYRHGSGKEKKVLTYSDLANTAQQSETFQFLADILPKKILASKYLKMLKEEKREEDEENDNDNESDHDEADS
# UniProt Q13057: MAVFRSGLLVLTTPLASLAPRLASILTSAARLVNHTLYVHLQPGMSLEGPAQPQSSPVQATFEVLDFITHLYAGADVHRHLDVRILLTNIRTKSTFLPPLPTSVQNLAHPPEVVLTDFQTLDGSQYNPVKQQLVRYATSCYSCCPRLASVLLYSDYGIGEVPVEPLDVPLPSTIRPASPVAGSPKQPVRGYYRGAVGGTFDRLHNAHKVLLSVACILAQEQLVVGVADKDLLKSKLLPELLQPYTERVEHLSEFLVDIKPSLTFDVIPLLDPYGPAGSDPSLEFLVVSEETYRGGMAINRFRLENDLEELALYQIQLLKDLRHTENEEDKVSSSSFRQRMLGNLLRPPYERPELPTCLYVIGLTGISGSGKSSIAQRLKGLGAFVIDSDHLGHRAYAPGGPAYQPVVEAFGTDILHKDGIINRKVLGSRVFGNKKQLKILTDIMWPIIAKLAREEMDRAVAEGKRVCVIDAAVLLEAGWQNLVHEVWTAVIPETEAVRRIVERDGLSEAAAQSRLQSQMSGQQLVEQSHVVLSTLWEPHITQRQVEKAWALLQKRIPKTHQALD
# UniProt A5YKK6, whole entry, looked up: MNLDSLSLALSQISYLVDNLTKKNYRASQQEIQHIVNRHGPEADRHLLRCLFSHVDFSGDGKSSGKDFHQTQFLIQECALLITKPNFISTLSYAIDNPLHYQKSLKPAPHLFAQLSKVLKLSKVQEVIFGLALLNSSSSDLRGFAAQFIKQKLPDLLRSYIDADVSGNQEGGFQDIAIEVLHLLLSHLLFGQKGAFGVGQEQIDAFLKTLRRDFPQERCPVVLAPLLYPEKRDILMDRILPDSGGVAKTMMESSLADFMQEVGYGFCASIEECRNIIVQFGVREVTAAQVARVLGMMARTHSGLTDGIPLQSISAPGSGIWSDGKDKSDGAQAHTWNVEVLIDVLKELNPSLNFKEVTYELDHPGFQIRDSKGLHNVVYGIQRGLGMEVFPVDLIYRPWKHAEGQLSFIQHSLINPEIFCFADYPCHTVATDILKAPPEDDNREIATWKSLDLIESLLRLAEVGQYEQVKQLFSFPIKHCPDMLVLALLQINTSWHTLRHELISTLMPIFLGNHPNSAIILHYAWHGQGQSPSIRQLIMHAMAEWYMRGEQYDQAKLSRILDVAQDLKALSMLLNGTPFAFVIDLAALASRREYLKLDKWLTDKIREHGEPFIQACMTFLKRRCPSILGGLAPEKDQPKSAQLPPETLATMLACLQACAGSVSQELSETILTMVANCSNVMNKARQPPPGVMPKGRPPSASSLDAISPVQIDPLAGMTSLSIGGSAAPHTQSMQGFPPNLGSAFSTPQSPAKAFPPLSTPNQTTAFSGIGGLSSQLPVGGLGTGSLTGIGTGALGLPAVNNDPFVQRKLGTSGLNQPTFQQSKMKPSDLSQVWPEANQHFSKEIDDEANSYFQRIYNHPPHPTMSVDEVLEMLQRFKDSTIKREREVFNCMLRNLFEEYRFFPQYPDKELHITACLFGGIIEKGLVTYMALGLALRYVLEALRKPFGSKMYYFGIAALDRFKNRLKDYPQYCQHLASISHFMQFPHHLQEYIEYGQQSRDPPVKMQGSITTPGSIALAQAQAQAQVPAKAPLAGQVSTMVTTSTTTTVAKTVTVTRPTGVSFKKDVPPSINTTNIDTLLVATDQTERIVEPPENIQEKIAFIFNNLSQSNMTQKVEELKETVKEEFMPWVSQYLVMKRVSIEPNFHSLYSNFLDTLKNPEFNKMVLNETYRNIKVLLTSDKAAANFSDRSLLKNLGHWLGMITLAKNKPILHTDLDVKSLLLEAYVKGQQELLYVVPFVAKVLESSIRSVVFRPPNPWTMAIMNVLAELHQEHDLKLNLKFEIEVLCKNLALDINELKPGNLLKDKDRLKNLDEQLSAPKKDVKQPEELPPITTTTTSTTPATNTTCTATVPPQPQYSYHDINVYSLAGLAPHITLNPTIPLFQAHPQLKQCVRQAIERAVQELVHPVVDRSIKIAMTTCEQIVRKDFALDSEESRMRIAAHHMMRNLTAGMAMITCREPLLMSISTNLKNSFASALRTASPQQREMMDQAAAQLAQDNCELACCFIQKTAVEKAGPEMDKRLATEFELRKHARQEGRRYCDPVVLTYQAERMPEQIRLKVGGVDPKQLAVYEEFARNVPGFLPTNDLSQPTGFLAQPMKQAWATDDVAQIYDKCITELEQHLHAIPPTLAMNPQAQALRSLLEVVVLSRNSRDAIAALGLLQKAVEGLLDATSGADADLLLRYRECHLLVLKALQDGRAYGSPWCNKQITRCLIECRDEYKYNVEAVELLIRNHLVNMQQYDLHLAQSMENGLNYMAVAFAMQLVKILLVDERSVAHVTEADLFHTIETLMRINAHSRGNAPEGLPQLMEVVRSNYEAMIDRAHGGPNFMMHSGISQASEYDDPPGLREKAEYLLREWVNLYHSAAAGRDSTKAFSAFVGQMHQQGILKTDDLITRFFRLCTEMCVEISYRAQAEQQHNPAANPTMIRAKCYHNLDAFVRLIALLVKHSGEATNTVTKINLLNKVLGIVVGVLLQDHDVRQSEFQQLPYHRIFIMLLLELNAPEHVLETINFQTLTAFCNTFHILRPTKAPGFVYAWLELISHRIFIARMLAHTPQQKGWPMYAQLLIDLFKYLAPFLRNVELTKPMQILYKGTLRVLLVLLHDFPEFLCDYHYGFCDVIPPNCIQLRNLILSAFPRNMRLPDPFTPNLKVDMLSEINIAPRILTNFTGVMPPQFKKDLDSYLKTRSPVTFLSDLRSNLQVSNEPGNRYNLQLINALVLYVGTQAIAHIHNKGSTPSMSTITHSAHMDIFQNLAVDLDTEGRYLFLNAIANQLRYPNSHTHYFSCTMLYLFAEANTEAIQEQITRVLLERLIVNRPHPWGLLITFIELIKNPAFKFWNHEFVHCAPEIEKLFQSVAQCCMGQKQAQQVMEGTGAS
# Columns and labels:
# Assay in all cases: log2 fold change, soluble protein after heating vs DMSO (PISA); higher = thermal stabilisation; K562 cells, 10 uM, 30 min; active = over 0.2 and 3.5 SD of the protein, either way, in both replicates (recomputed)
# bafetinib = compound: Cc1ccc(NC(=O)c2ccc(CN3CC[C@H](N(C)C)C3)c(C(F)(F)F)c2)cc1Nc1nccc(-c2cncnc2)n1 [bafetinib]
# In short: (§1)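 K562 cells at 2×10^6 cells/mL were treated for 30 min with 10 μM compound, and aliquots were heated for 3 min over 48°C-58°C before pooling. Extraction used PBS with 0.5% NP-40 at 4°C, and soluble protein was the supernatant after 21,000xg for 90 min, measured by TMTpro 16plex LC-MS/MS with channel sums equalised. Thermal stability values, relative to control samples and from duplicates, are log2 fold changes.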
# [1] = compound: Cc1cccc(CC(=O)N2CCc3c2ccc(-c2cn(C)c4ncnc(N)c24)c3F)n1
# In short: as §1
# nilotinib = compound: Cc1cn(-c2cc(NC(=O)c3ccc(C)c(Nc4nccc(-c5cccnc5)n4)c3)cc(C(F)(F)F)c2)cn1 [nilotinib]
# In short: as §1
# [2] = compound: Cc1nc(Nc2n[nH]c3c2CN(C(=O)N[C@H](CN(C)C)c2ccccc2)C3(C)C)c2sccc2n1
# In short: as §1
# dasatinib = compound: Cc1nc(Nc2ncc(C(=O)Nc3c(C)cccc3Cl)s2)cc(N2CCN(CCO)CC2)n1 [dasatinib]
# In short: as §1
# [3] = compound: Cc1ncc(-c2ccnc(Nc3ccc(S(C)(=O)=O)cc3)n2)n1C(C)C
# In short: as §1
# [4] = compound: Cn1cc(-c2ccc3c(c2)CCN3C(=O)Cc2cccc(C(F)(F)F)c2)c2c(N)ncnc21
# In short: as §1
# [5] = compound: Cn1cc(-c2ccc3nnc(C(F)(F)c4ccc5ncccc5c4)n3n2)cn1
# In short: as §1
# tipifarnib = compound: Cn1cncc1[C@@](N)(c1ccc(Cl)cc1)c1ccc2c(c1)c(-c1cccc(Cl)c1)cc(=O)n2C [tipifarnib]
# In short: as §1
# mubritinib = compound: FC(F)(F)c1ccc(/C=C/c2nc(COc3ccc(CCCCn4ccnn4)cc3)co2)cc1 [mubritinib]
# In short: as §1
Target,log2 fold change (bafetinib),log2 fold change [1],log2 fold change (nilotinib),log2 fold change [2],log2 fold change (dasatinib),log2 fold change [3],log2 fold change [4],log2 fold change [5],log2 fold change (tipifarnib),log2 fold change (mubritinib)
CLPX (UniProt O76031),inactive: 0.008,inactive: -0.074,inactive: -0.006,inactive: 0.042,inactive: 0.006,inactive: -0.019,inactive: -0.012,inactive: 0.032,inactive: 0.052,inactive: -0.048
COL18A1 (UniProt P39060),inactive: 0.002,inactive: -0.017,inactive: 0.184,inactive: -0.153,inactive: 0.03,inactive: 0.104,inactive: -0.149,inactive: -0.029,inactive: 0.028,inactive: -0.085
CHURC1 isoform 2 (UniProt Q8WUH1),inactive: -0.093,inactive: -0.037,inactive: -0.015,inactive: -0.04,inactive: 0,inactive: 0.066,inactive: -0.073,inactive: 0.034,inactive: -0.049,inactive: 0.008
CNPY3 (UniProt Q9BT09),inactive: -0.076,inactive: -0.072,inactive: -0.013,inactive: 0.016,inactive: 0.01,inactive: -0.047,inactive: 0.021,inactive: 0.015,inactive: 0.002,inactive: 0.002
CHMP6 (UniProt Q96FZ7),inactive: -0.044,inactive: 0.004,inactive: -0.025,inactive: -0.024,inactive: -0.057,inactive: -0.019,inactive: 0.048,inactive: 0.011,inactive: 0.014,inactive: 0.017
CLTA isoform 2 (UniProt P09496),inactive: 0.041,inactive: -0.016,inactive: 0.085,inactive: 0.048,inactive: 0.061,inactive: -0.025,inactive: -0.056,inactive: -0.023,inactive: -0.003,inactive: -0.01
CISD2 (UniProt Q8N5K1),inactive: -0.057,inactive: 0.025,inactive: 0.019,inactive: 0.026,inactive: 0.054,inactive: -0.021,inactive: 0.045,inactive: 0.001,inactive: 0.069,inactive: 0.011
CNOT3 (UniProt O75175),inactive: 0.022,inactive: 0.082,inactive: 0.011,inactive: -0.018,inactive: -0.029,inactive: 0.011,inactive: -0.017,inactive: 0.03,inactive: -0.096,inactive: 0.002
CKMT1A (UniProt P12532),inactive: -0.027,inactive: -0.052,inactive: -0.048,inactive: 0.013,inactive: 0.019,inactive: -0.001,inactive: 0,inactive: 0.022,inactive: 0.083,inactive: -0.005
COA3 (UniProt Q9Y2R0),inactive: -0.084,inactive: -0.046,inactive: 0.025,inactive: -0.077,inactive: 0.087,inactive: -0.01,inactive: 0.013,inactive: 0.05,inactive: 0.046,inactive: 0.045
CISD1 (UniProt Q9NZ45),inactive: -0.084,inactive: -0.042,inactive: 0.052,inactive: 0.007,inactive: 0.025,inactive: 0.006,inactive: -0.002,inactive: 0.027,inactive: 0.03,inactive: 0.001
CIRBP isoform 2 (UniProt Q14011),inactive: 0.098,inactive: -0.076,inactive: -0.036,inactive: 0.136,inactive: 0.088,inactive: 0.06,inactive: -0.263,inactive: -0.142,inactive: 0.068,inactive: -0.148
CHST14 (UniProt Q8NCH0),inactive: -0.224,inactive: 0.011,inactive: -0.063,inactive: -0.014,inactive: 0.038,inactive: 0.019,inactive: -0.127,inactive: -0.012,inactive: 0.082,inactive: 0.052
CIAO1 (UniProt O76071),inactive: -0.078,inactive: -0.038,inactive: -0.007,inactive: -0.029,inactive: -0.043,inactive: -0.009,inactive: 0.036,inactive: 0.001,inactive: 0.103,inactive: 0.069
CLCN6 isoform 5 (UniProt P51797),inactive: -0.069,inactive: 0.113,inactive: 0.015,inactive: 0.129,inactive: 0.088,inactive: 0.123,inactive: 0.014,inactive: 0.005,inactive: 0.069,inactive: -0.131
CLCN3 isoform 2 (UniProt P51790),inactive: -0.044,inactive: 0.076,inactive: -0.016,inactive: 0.034,inactive: 0.027,inactive: 0.017,inactive: 0.017,inactive: 0.027,inactive: 0.004,inactive: -0.004
CNPY2 (UniProt Q9Y2B0),inactive: -0.093,inactive: -0.049,inactive: 0.021,inactive: 0.018,inactive: 0.008,inactive: -0.027,inactive: 0.032,inactive: 0.032,inactive: 0.054,inactive: 0.015
CLCN3 (UniProt P51790),inactive: -0.112,inactive: -0.022,inactive: -0.007,inactive: 0.04,inactive: 0.019,inactive: -0.027,inactive: 0.03,inactive: 0.049,inactive: 0.015,inactive: 0.024
CNBP isoform 6 (UniProt P62633),inactive: -0.019,inactive: -0.08,inactive: 0.003,inactive: 0.027,inactive: 0.118,inactive: 0.021,inactive: -0.088,inactive: 0.038,inactive: 0.087,inactive: -0.006
CNP (UniProt P09543),inactive: -0.031,inactive: -0.055,inactive: -0.038,inactive: 0.003,inactive: -0.03,inactive: 0.005,inactive: 0.043,inactive: -0.019,inactive: -0.014,inactive: -0.014
CMC1 (UniProt Q7Z7K0),inactive: -0.149,inactive: 0.013,inactive: 0.109,inactive: -0.2,inactive: 0.045,inactive: 0.068,inactive: -0.055,inactive: 0.065,inactive: 0.186,inactive: 0.101
CLSPN (UniProt Q9HAW4),inactive: -0.071,inactive: -0.035,inactive: 0.018,inactive: -0.011,inactive: 0.094,inactive: -0.123,inactive: -0.021,inactive: -0.03,inactive: 0.045,inactive: 0.053
CLPTM1 (UniProt O96005),inactive: -0.004,inactive: 0.011,inactive: -0.007,inactive: 0.048,inactive: 0.006,inactive: -0.032,inactive: -0.02,inactive: 0.031,inactive: 0.04,inactive: -0.062
COCH (UniProt O43405),inactive: 0.076,inactive: -0.17,inactive: 0.2,inactive: -0.288,inactive: 0.179,inactive: -0.262,inactive: -0.069,inactive: -0.005,inactive: 0.07,inactive: -0.062
CHRAC1 (UniProt Q9NRG0),inactive: 0.061,inactive: 0.067,inactive: -0.017,inactive: -0.047,inactive: -0.01,inactive: 0.035,inactive: 0.038,inactive: -0.021,inactive: -0.056,inactive: 0.05
COASY isoform 2 (UniProt Q13057),inactive: -0.009,inactive: 0.089,inactive: -0.19,inactive: 0.001,inactive: -0.132,inactive: 0.005,inactive: 0.037,inactive: -0.062,inactive: -0.102,inactive: -0.196
CNOT6L (UniProt Q96LI5),inactive: 0.068,inactive: 0.03,inactive: -0.036,inactive: 0.003,inactive: -0.12,inactive: -0.069,inactive: -0.008,inactive: 0.044,inactive: 0.349,inactive: 0.055
CNOT1 (UniProt A5YKK6),inactive: 0.009,inactive: 0.033,inactive: -0.066,inactive: -0.058,inactive: -0.106,inactive: -0.014,inactive: 0.023,inactive: -0.035,inactive: -0.061,inactive: 0.052
CLASP2 isoform 3 (UniProt O75122),inactive: 0.016,inactive: 0.058,inactive: -0.067,active: -0.279,inactive: -0.175,inactive: -0.188,inactive: 0.013,inactive: 0.012,inactive: -0.089,inactive: 0.022

# 2 consecutive records out of the list so far, for reference:
Target,log2 fold change (bafetinib),log2 fold change [1],log2 fold change (nilotinib),log2 fold change [2],log2 fold change (dasatinib),log2 fold change [3],log2 fold change [4],log2 fold change [5],log2 fold change (tipifarnib),log2 fold change (mubritinib)
CNOT3 (UniProt O75175),inactive: 0.022,inactive: 0.082,inactive: 0.011,inactive: -0.018,inactive: -0.029,inactive: 0.011,inactive: -0.017,inactive: 0.03,inactive: -0.096,inactive: 0.002
CKMT1A (UniProt P12532),inactive: -0.027,inactive: -0.052,inactive: -0.048,inactive: 0.013,inactive: 0.019,inactive: -0.001,inactive: 0,inactive: 0.022,inactive: 0.083,inactive: -0.005

# Reference: the supplement of paper PMC10849652
